Non-standard residues stand in square brackets, D forms with d. *: point of attachment. Abu = CC[C@H](N)C(=O)O; Boc = CC(C)(C)OC(=O)*; Bn = c1ccc(C*)cc1; βAla = NCCC(=O)O

This is an account of results in US5162305 (dated 1992).

One data set in a line: general procedure: solution-phase peptide synthesis; azide method (isoamyl nitrite/HCl-dioxane); OSu active esters; TFA-ONp (p-nitrop). The following applies: coupling step.
Substance “Boc-Thr(Bzl)-D-Tyr(Cl2 -Bzl)-Pro-Arg(Tos)-Thr(Bzl)-Asp(OcHex)-Val-Gly-Ala-Gly-Thr(Bzl)-Pro--NH2” returned a step yield of 71.8%.

Consider “Boc-Thr(Bzl)-Leu-Pro-Gln-Thr(Bzl)-Asp(OcHex)-Val-Gly-Ala-Gly-Thr(Bzl)-Pro- -NH2”, for which the step yield came to 85.0%.

Consider “Boc-Thr(Bzl)-Pro-Arg(Tos)-Thr(Bzl)-Asp(OEt)-Val-Gly-Ala-Gly-Thr(Bzl)-Pro-- NH2”, for which the step yield stood at 88.5%.

As to “Boc-Thr(Bzl)-Tyr(Cl2 -Bzl)-Pro-Arg(Tos)-Thr(Bzl)-Asp(OBzl)-Val-Gly-Ala-Gly-Thr(Bzl)-Pro--NH2”, the step yield is on record as 94.9%.

The substance “Boc-Thr(Bzl)-Tyr(Cl2 -Bzl)-Pro-Gln-Thr(Bzl)-Asp(OcHex)-Val-Gly-Ala-Gly-Thr(Bzl)-Pro--NH2” came in with a step yield of 96.2%.

“Boc-Tyr(Cl2 -Bzl)-Lys(Cl-Z)-Leu-Gln-Thr(Bzl)-Pro-Gln-Thr(Bzl)-Asp(OcHex)-Val-Gly-Ala-Gly-Thr(Bzl)-Pro--NH2”: the step yield was 88.9%.

Boc-[Abu]S(Bn)NL-OEt yielded a step yield of 84.0%.

Turning to Boc-[Abu]S(Bn)NLS(Bn)T(Bn)D-OEt, the step yield is recorded as 55.3%.

Regarding “Boc-β-Ala-Asn-Leu-Ser(Bzl)-Thr(Bzl)-Cec--OCH3”, the step yield is recorded as 60.9%.

Substance {Boc-βAla-βAla}-Asn-Leu-OEt yielded a step yield of 62.0%.

Consider {Boc-βAla-βAla}-NLS(Bn)T(Bn)D-OEt, for which the step yield is reported as 98.8%.

On to {Boc-βAla}-S(Bn)NLS(Bn)T(Bn)E-OMe, for which the step yield was found to be 63.7%.

Take {Boc-βAla}-Ser(Bn)-Asn-Leu-OEt: the step yield is 68.6%.

The data set is the same for the next values; noted with them: late stage modification step.
For the substance Boc-β-Ala-β-Ala-Asn-Leu-N2 H3, the step yield was 87.9%.

As to “β-Ala-Ser(Bzl)-Asn-Leu-Ser(Bzl)-Thr(Bzl)-Glu--N2 H3”, the step yield stood at 100%.
